Screen size: about 320,000 compounds; about 2,100 (0.66%) were called active. The inconclusive results got no clear call from the source; some entries with a clear call stand among them for comparison. The call rests on the fitted dose curve; in most records, active means well fitted inhibition curve with a large enough effect in the signal ratio, with a control signal flat (not every such curve was filed as active); inconclusive means small, poorly fitted or top-dose-only effect, or effect the other way, or a change in a side signal; inactive means flat fitted curve, though single readings scatter; the % refers to the signal ratio. Potencies of inconclusive entries are doubtful fits and often do not repeat.
test: qHTS Assay for Lipid Storage Modulators in Drosophila S3 Cells; settings: BODIPY lipid droplet fluorescence, 18-24 h, cells fed with added oleic acid; lipid storage change, negative = inhibition: at 46.1 µM (top of the series) unless noted
From the text: NIH Molecular Libraries Probe Production Centers Network [MLPCN] NIH Chemical Genomics Center [NCGC] MLPCN Grant: 1 R03 MH085686-01 Assay Submitter (PI): Beller, Mathias; Max-Planck-Institut fur Biophysikalische Chemie NCGC Assay Overview: Storing lipids as a reservoir for energy or the anabolism of elementary metabolites is a common feature of probably all cells and is conserved from bacteria to humans. The universal cellular lipid storage organelle is the so-called lipid storage droplet (LD). Although ubiquitous, LDs share a simple structure composed of a hydrophobic core that harbors the storage lipids, which is shielded by a droplet-specific phospholipid monolayer to which proteins are attached. The current model of LD biogenesis involves an incorporation of the lipid core into the membrane leaflets of the endoplasmic reticulum (ER) followed by a subsequent budding-like maturation of a LD, which ultimately pinches off. Once released, LD volume can increase by localized lipogenesis or fusion of existing droplet. Storage lipids are re-mobilized enzymatically by lipase activity. Lipase regulation in the adipocyte is heavily studied and involves multiple components including catecholamine signaling, the LD-associated proteins Perilipin and comparative gene identification (CGI-58) and at least two lipases named hormone sensitive lipase (HSL) and adipocyte triglyceride lipase (ATGL). LD regulation outside of the adipocyte is poorly understood and only few components are known. However, there is an urgent need to learn more about ectopic fat depots as mislocalized storage of lipids, for example in the liver or muscle, is an eminent health problem associated with insulin resistance or the metabolic syndrome. We developed a laser-scanning cytometer assay to enable 1,536-well screening and combined the results of the small molecules screen with an RNAi database based on lipid storage.
Triacsin C (Sigma-Aldrich T-4540), an inhibitor of long-chain fatty acyl CoA synthetase that blocks synthesis of triglycerides, was used as a positive control for lipid under-storage. A total of 23 nL of compound solution of different concentrations were transferred to the assay plates using a Kalypsys pin tool equipped with a 1,536-pin array containing 10-nL slotted pins (FP1S10, 0.457-mm diameter, 50.8 mm long; V&P Scientific). One microliter of oleic acid (400 uM) was added, and the plate was lidded with stainless steel rubber gasket lined lids containing pinholes. […] Fluorescence was detected by excitation of the fluorophores with a 488-nm laser on an Acumen Explorer (TTP Lab Tech). The total intensity in channel 2 (500-530 nm) reflected lipid droplet accumulation. Cells were detected using channel 3 (575-640 nm) with 5-um width and 100-um depth filters. The ratio of the number of objects in PMT channel 2 over the number of objects in PMT channel 3 was also calculated. Percent activity was computed relative to an internal control (100% inhibited lipid droplet deposition due to the presence of 20 uM Triacsin C), which was added to 32 wells/plate.
On the % scale 0 is the no-effect control and ±100 the full control effect; potency means the concentration at half of the fitted maximal effect.

Row | Structure (SMILES) | lipid storage change, negative = inhibition | Potency
1 | CCC(C)NC(=O)c1ccccc1NC(=O)CN(c1ccc(OC)cc1)S(C)(=O)=O (stereo unspecified) | inconclusive: 0.0488% | –
2 | c1coc(C2Nc3cccc4cccc(c34)N2)c1 | inactive | –
3 | COc1cccc2cc(C(=O)Nc3ccccc3C(=O)N3CCOCC3)oc12 | – | inconclusive: 6.51 µM [falling, partial curve]
4 | O=C(CCN1C(=O)/C(=C/c2cccs2)SC1=S)Nc1ccccn1 | inconclusive: -9.85% | –
5 | O=C1c2ccccc2C(Nc2ccc(S(=O)(=O)N3CCOCC3)cc2)N1c1ccccn1 (stereo unspecified) | inconclusive: 0.671% [at 9.22 µM] | –
6 | Cn1nc(C(=O)Nc2sccc2C(N)=O)ccc1=O | inconclusive: -2.15% | –
7 | Cc1nn(Cc2ccc(Cl)cc2Cl)c(C)c1NC(=O)Cn1nc([N+](=O)[O-])c(Cl)c1C | – | inconclusive: 0.206 µM [activator, partial curve]
8 | O=C(/C=C/NNC(=O)c1cccc(Br)c1)c1ccccc1 | – | inconclusive: 4.11 µM [activator, full curve, poor fit]
9 | Nc1ccc(C(=O)c2ccccc2C(=O)O)cc1Cl | inconclusive: 6.19% | –
10 | CCOC(=O)c1c(C)oc2c(CC(=O)c3ccccc3)c(Cl)c(O)c(O)c12 | inconclusive: 173% | –
11 | COc1ccccc1NC(=O)CSc1nnc(CC(=O)Nc2ccccc2)n1C | – | inconclusive: 16.4 µM [activator, single point]
12 | Cc1cc(C(=O)N2CCN(c3ccc([N+](=O)[O-])cc3)CC2)no1 | inconclusive: -6.37% | –
13 | COC(=O)[C@H](CC(C)C)NC(=O)NCCCc1ccccc1 | inconclusive: 0.431% | –
14 | CN(CC(=O)N1CCCCC1)S(=O)(=O)c1ccc(Cl)cc1 | inconclusive: 0.103% | –
15 | C=CCN1c2ccccc2[C@]23C[C@@H](C(=O)OC)N=C2NC(C(=O)OC)=C(C(=O)OC)[C@H]13 | inactive | –
16 | CCc1nn(-c2cc(Cl)ccc2OC)c2c1C(=O)CCC2 | inconclusive: -13.6% | –
17 | COc1cccc(C(=O)Oc2ccc(/C=N/NC(=O)c3ccncc3)cc2OC)c1 | – | inconclusive: 0.0058 µM [falling, full curve, poor fit]
18 | COC(=O)C1=C(C)N(C)C(=O)NC1c1ccc([N+](=O)[O-])o1 (stereo unspecified) | – | inconclusive: 29.1 µM [rising, single point]
19 | Cn1nc(-c2ccc(C(=O)N3CCN(Cc4ccccc4)CC3)cc2)c2ccccc2c1=O | inconclusive: -11.1% | –
20 | CCn1c(CSc2nc(C)cc(C)n2)nnc1SCC(=O)N1CCCc2ccccc21 | inconclusive: 109% | –
21 | N#Cc1cc2cc3c(cc2nc1N1CCCCC1)OCCO3 | – | inconclusive: 0.0046 µM [activator, full curve, poor fit]

Row | Structure (SMILES) | lipid storage change, negative = inhibition | Potency
22 | CN(C)C=Nc1c(C(=O)c2ccccc2)sc2nccc(N(C)C)c12 | inconclusive: -1.09% | –
23 | O=C(OCC(=O)N1CCN(C(=O)c2ccco2)CC1)c1ccccc1C(=O)c1ccc(Cl)cc1 | inconclusive: 23.4% | –
24 | COc1ccccc1/C=C/C=C1\Oc2c(ccc(O)c2CN(C)C)C1=O | inconclusive: 9.95% | –
25 | CCCOC1CCCN(C(=O)c2cc(Cl)c(Cl)cc2C(=O)O)C1 (stereo unspecified) | inconclusive: -45.2% | –
26 | CC(OC(=O)C1CCCC1)C(=O)Nc1ncc(Cl)cc1Cl (stereo unspecified) | inconclusive: 2.93% | –
27 | O=C(COc1ccc(Br)cc1CNC1CCCCC1)NCCc1ccccc1 | inconclusive: 8.86% | –
28 | Cn1c(=O)n(C)c2cc(S(=O)(=O)O)ccc21 | inconclusive: -0.944% | –
29 | O=C(CSc1nc(-c2ccco2)cc(C(F)(F)F)n1)N1CCN(c2ccc(Cl)cc2)CC1 | inconclusive: -13.2% | –
30 | COCC(=O)Nc1cc(C(=O)OC)cc(C(=O)OC)c1 | inconclusive: 12.8% | –
31 | CSCc1ccc(C(=O)NC2CC(C)(C)Cc3c2cnn3-c2ccc(F)cc2)o1 (stereo unspecified) | – | active: 25.9 µM
32 | COC(=O)CCn1nnc(-c2cccs2)n1 | inconclusive: -21.1% | –
33 | CCOCCCNC(=O)c1cc2c(=O)n3cccc(C)c3nc2n1C | – | inconclusive: 0.291 µM [activator, full curve, poor fit]
34 | Cc1nn(-c2ccccc2)c(C)c1N | – | inconclusive: 0.58 µM [rising, single point]
35 | O=C(CSC1CC(=O)N(CCc2ccccc2)C1=O)Nc1ccc(Br)cc1 (stereo unspecified) | inconclusive: 12.5% | –
36 | OCCC1CN(C/C=C/c2ccco2)CCN1Cc1ccccc1 (stereo unspecified) | – | inconclusive: 29.1 µM [falling, single point]
37 | COC(=O)C(Cc1ccccc1)NC(=O)CCNC(=O)c1ccco1 (stereo unspecified) | inconclusive: -13.5% | –
38 | O=C(/C=C/c1ccc(F)cc1)c1ccc(N2CCOCC2)cc1 | inconclusive: 12.4% | –
39 | CCOC(=O)c1sc2nc(CSc3ccccc3)[nH]c(=O)c2c1C | inconclusive: 5.07% | –
40 | O=[N+]([O-])c1ccc(/C([O-])=C(/C(=S)NCc2ccco2)[n+]2ccccc2)cc1 | inconclusive: 47.6% | –
41 | CCc1c(O)nc(SCC(=O)Nc2ccccc2)n(C(C)CC)c1=O (stereo unspecified) | inconclusive: 204% | –
42 | CCOC(=O)C1=NOC(Cn2cc(C(C)=O)c(=O)[nH]c2=O)C1 (stereo unspecified) | inconclusive: 12.8% | –

Given tab-delimited: part of the list above
Row	Structure (SMILES)	lipid storage change, negative = inhibition	Potency
31	CSCc1ccc(C(=O)NC2CC(C)(C)Cc3c2cnn3-c2ccc(F)cc2)o1 (stereo unspecified)	–	active: 25.9 µM
32	COC(=O)CCn1nnc(-c2cccs2)n1	inconclusive: -21.1%	–
33	CCOCCCNC(=O)c1cc2c(=O)n3cccc(C)c3nc2n1C	–	inconclusive: 0.291 µM [activator, full curve, poor fit]

(cont.)

Row | Structure (SMILES) | lipid storage change, negative = inhibition | Potency
43 | O=C(Nc1ccccc1)O/N=C1\CCCCC1c1ccc([N+](=O)[O-])cc1[N+](=O)[O-] (stereo unspecified) | inconclusive: 31.5% | –
44 | Nc1c(Cl)cc(C2=NCCn3nc4ccccc4c32)cc1Cl | inconclusive: 7.91% | –
45 | O=C(CNc1ccccc1)N/N=C/c1ccc2c(c1)OCO2 | inconclusive: 9.76% | –
46 | CCCN1CCC(NC(=O)Nc2ccc(OC)c(OC)c2)CC1 | inconclusive: -69.2% | –
47 | Nc1nc(-c2ccccc2)[nH]c(=O)c1N | inconclusive: 13.7% | –
48 | CCOCCCNC(=O)c1c(C)[nH]c(C(=O)OCC)c1C | inconclusive: 55.2% | –
49 | Cc1ccc(S[C@@H](CCN2CC[C@H](O)CCC2=O)c2ccccc2)cc1 | inconclusive: 49.7% | –
50 | COc1ccccc1CCN1CCCC(CN(C)C(=O)CCC(=O)N(C)C)C1 (stereo unspecified) | – | inconclusive: 0.731 µM [activator, single point]
51 | CCOC(=O)CCc1nc2ccccc2[nH]c1=O | inconclusive: -1.47% | –
52 | CCC1(CC)Cc2ccccc2C(=O)N1 | inconclusive: -23% | –
53 | CCN(CC)S(=O)(=O)c1cccc(C(=O)Oc2cccnc2)c1 | inconclusive: -40.3% | –
54 | CC(OC(=O)Cn1cnc2c1c(=O)n(C)c(=O)n2C)C(=O)NC1(C#N)CCCCC1 (stereo unspecified) | inconclusive | –
55 | COCCC(=O)N1CCC(n2nccc2NC(=O)c2ccccc2C)CC1 | – | inconclusive: 0.82 µM [falling, single point]
56 | CC(NC(=O)CSCc1ccccc1Br)c1ccccc1 (stereo unspecified) | – | inconclusive: 10.3 µM [activator, partial curve]
57 | Cc1cc(NC(=O)COC(=O)C2CCCN2C(=O)c2cccs2)no1 (stereo unspecified) | – | inconclusive: 0.146 µM [falling, full curve, poor fit]
58 | CCN1C(=O)/C(=C/C2=Cc3ccccc3OC2C)SC1=S (stereo unspecified) | – | inconclusive: 4.11 µM [falling, partial curve, poor fit]
59 | O=C(c1cccc(S(=O)(=O)N2CCOCC2)c1)N1CCN(c2ccccc2)CC1 | inconclusive: -32.3% | –
60 | Cc1ccnc(NC(=O)CCC(=O)N(CC(=O)NCC2CCCO2)Cc2ccc(F)cc2)c1 (stereo unspecified) | inconclusive: 69.8% | –
61 | COC(C(=O)NNS(=O)(=O)c1ccccc1[N+](=O)[O-])c1ccccc1 (stereo unspecified) | – | inconclusive: 0.58 µM [activator, single point]
62 | COc1ccc(CN2CCN(c3ccccn3)CC2)cc1OCc1ccccc1 | inconclusive: 30.1% | –
63 | COc1ccc(-c2cccc(NS(=O)(=O)c3cc([N+](=O)[O-])ccc3Cl)c2)nn1 | inconclusive | –

Row | Structure (SMILES) | lipid storage change, negative = inhibition | Potency
64 | OC(CN1CCNCC1)Cn1c2ccccc2c2ccccc21 (stereo unspecified) | inconclusive: 9.07% | –
65 | Cc1ccc(S(=O)(=O)N2CCCC2C(=O)N(C)Cc2cccs2)cc1 (stereo unspecified) | inconclusive: 26.1% | –
66 | COc1ccc(NC(=O)CN(C)CC(=O)NCC2CCCCC2)cc1 | inconclusive | –
67 | COc1ccccc1CNC(=O)CSc1ccccc1 | inconclusive: 17% | –
68 | CCC1=NN2C(=N)/C(=C/c3c(C)nn(-c4ccccc4)c3Cl)C(=O)N=C2S1 | inconclusive: 0.493% | –
69 | CCOc1ccc2nc(NS(C)(=O)=O)sc2c1 | inconclusive: 62.2% | –
70 | COc1ccc(Cl)cc1NC(=O)c1noc(C)c1[N+](=O)[O-] | inconclusive: -110% | –
71 | CC(C)CCNC(=O)C1CCC(=O)N1CCc1ccccc1 (stereo unspecified) | inactive | –
72 | COc1cccc(-c2nc(CS(=O)CC(=O)NCCc3ccc(C)cc3)c(C)o2)c1 (stereo unspecified) | – | inconclusive: 32.6 µM [falling, single point]
73 | O=C(CCCOc1ccc(Cl)cc1)Nc1ccc(N2CCOCC2)cc1 | inconclusive: -8.49% | –
74 | CCOc1c(O)ccc(/C=C2\SC(=S)NC2=O)c1[N+](=O)[O-] | inconclusive: -37.5% | –
75 | COc1ccc(NC(=O)c2cc([N+](=O)[O-])ccc2N2CCCCC2)cc1 | inconclusive: 5.83% | –
76 | O=c1[nH]c(/C=C\c2cccs2)nc(O)c1[N+](=O)[O-] | – | inconclusive: 29.1 µM [falling, single point]
77 | O=Cc1ccc(OCC(=O)N2CCc3ccccc32)c(Br)c1 | inconclusive | –
78 | COc1ccc(NC(=O)N2C3CCCC2CC(NC(=O)c2ccccc2)C3)cc1 (stereo unspecified) | inconclusive: 164% | –
79 | O=C(Nc1ccc(C(=O)NCc2ccccc2)cc1)C1=CSCCO1 | inconclusive: -6.96% | –
80 | CCOC(=O)/C(=N\Nc1cccc(Cl)c1)Sc1nnc(-c2ccc(OC)cc2)n1C | inactive | –
81 | Cc1ccc(NC(=O)CSc2nc3c(c(=O)n(C)c(=O)n3C)n2C)cc1 | inconclusive: 77.1% | –

Reference: PubChem BioAssay AID2685 (National Center for Advancing Translational Sciences (NCATS), 2010)
